Literature values, collected in PMC5225183, “Fingerprinting of neurotoxic compounds using a mouse embryonic stem cell dual luminescence reporter assay” (Archives of Toxicology, 2016).
Read-outs that look alike come from different tables or passages of the source. Marks after values point to notes of the source that are not given here.

Assays:
[1] = Table S1, three classes; ref per compound in the footnotes of Table S1; cited from earlier work
[2] = ref Zimmer et al. ([2014]), cited from earlier work

For `CCCCc1oc2ccccc2c1C(=O)c1cc(I)c(OCCN(CC)CC)c(I)c1` [Amiodarone], the “class based on clinical evidence for neurotoxicity” value [1] is given as “Possibly (developmental)”, the Concentration in humans [2] is given as 2.3^k µM and the Concentration in humans ([2]; listed as amiodarone) is given as 2 to 3 µM.
